Laboratory results as given in article PMC5709735, “Real‐time detection of condensin‐driven DNA compaction reveals a multistep binding mechanism” (The EMBO Journal, 2017).
These are yes or no findings as the source states them, for the method shown. Some binding calls cover weakened binding; strength is not graded here.

T1: Brn1 K409D, R411D, K414D, K451D, K452D, K456D, K457D (S. cerevisiae) (UniProt P38170)
T1 sequence: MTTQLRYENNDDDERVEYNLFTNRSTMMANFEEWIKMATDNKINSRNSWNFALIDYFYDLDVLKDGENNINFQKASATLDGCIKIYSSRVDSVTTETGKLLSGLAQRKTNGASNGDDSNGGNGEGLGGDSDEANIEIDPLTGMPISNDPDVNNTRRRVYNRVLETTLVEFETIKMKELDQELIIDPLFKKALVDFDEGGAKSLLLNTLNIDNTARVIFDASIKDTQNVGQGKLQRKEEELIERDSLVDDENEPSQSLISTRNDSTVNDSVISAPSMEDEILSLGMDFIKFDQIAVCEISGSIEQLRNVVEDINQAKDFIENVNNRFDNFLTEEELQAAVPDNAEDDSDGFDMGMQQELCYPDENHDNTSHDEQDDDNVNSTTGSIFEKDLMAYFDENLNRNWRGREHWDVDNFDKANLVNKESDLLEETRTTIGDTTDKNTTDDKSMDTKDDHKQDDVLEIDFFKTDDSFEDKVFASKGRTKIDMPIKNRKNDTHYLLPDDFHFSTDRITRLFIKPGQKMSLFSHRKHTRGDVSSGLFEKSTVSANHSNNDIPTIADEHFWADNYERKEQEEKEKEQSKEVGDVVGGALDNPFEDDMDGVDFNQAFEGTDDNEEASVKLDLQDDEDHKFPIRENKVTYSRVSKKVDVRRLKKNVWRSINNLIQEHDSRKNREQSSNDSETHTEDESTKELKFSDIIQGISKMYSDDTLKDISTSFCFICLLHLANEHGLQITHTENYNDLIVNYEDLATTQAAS

T2: Brn1 (S. cerevisiae) (UniProt P38170)
T2 sequence: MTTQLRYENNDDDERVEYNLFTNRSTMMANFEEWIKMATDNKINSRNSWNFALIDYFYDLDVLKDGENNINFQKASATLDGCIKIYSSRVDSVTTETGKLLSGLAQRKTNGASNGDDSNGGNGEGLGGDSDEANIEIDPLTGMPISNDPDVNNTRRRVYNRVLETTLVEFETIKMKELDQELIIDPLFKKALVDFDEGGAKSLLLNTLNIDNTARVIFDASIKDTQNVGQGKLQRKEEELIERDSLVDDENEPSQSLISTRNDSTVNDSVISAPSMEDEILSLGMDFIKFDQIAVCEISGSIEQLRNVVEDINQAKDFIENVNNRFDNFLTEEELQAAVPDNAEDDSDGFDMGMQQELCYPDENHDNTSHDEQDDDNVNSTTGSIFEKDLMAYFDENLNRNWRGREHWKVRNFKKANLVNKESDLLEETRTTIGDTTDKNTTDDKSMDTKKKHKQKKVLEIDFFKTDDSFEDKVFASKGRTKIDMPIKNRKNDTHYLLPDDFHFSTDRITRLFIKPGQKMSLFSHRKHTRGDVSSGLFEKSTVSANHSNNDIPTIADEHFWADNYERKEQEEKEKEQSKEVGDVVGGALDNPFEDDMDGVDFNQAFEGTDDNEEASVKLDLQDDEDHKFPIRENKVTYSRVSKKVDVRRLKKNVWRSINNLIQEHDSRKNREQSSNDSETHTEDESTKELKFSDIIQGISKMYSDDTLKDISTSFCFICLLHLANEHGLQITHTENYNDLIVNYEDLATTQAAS


Key:
[1] = target: T1, Brn1 K409D, R411D, K414D, K451D, K452D, K456D, K457D (S. cerevisiae); assay: tandem affinity chromatography + SEC; subunits co-overexpressed in budding yeast; complexes purified from interphase cell extracts by the His12 tag on Brn1 and the triple StrepII tag on Smc4, followed by a gel filtration step
Brn1 (S. cerevisiae) = target: T2, Brn1 (S. cerevisiae); assay: as above

Binder	binding [1]	binding (Brn1 (S. cerevisiae))
Smc4 (protein, UniProt Q12267 1-1418) MSDSPLSKRQKRKSAQEPELSLDQGDAEEDSQVENRVNLSENTPEPDLPALEASYSKSYTPRKLVLSSGENRYAFSQPTNSTTTSLHVPNLQPPKTSSRGRDHKSYSQSPPRSPGRSPTRRLELLQLSPVKNSRVELQKIYDRHQSSSKQQSRLFINELVLENFKSYAGKQVVGPFHTSFSAVVGPNGSGKSNVIDSMLFVFGFRANKMRQDRLSDLIHKSEAFPSLQSCSVAVHFQYVIDESSGTSRIDEEKPGLIITRKAFKNNSSKYYINEKESSYTEVTKLLKNEGIDLDHKRFLILQGEVENIAQMKPKAEKESDDGLLEYLEDIIGTANYKPLIEERMGQIENLNEVCLEKENRFEIVDREKNSLESGKETALEFLEKEKQLTLLRSKLFQFKLLQSNSKLASTLEKISSSNKDLEDEKMKFQESLKKVDEIKAQRKEIKDRISSCSSKEKTLVLERRELEGTRVSLEERTKNLVSKMEKAEKTLKSTKHSISEAENMLEELRGQQTEHETEIKDLTQLLEKERSILDDIKLSLKDKTKNISAEIIRHEKELEPWDLQLQEKESQIQLAESELSLLEETQAKLKKNVETLEEKILAKKTHKQELQDLILDLKKKLNSLKDERSQGEKNFTSAHLKLKEMQKVLNAHRQRAMEARSSLSKAQNKSKVLTALSRLQKSGRINGFHGRLGDLGVIDDSFDVAISTACPRLDDVVVDTVECAQHCIDYLRKNKLGYARFILLDRLRQFNLQPISTPENVPRLFDLVKPKNPKFSNAFYSVLRDTLVAQNLKQANNVAYGKKRFRVVTVDGKLIDISGTMSGGGNHVAKGLMKLGTNQSDKVDDYTPEEVDKIERELSERENNFRVASDTVHEMEEELKKLRDHEPDLESQISKAEMEADSLASELTLAEQQVKEAEMAYVKAVSDKAQLNVVMKNLERLRGEYNDLQSETKTKKEKIKGLQDEIMKIGGIKLQMQNSKVESVCQKLDILVAKLKKVKSASKKSGGDVVKFQKLLQNSERDVELSSDELKVIEEQLKHTKLALAENDTNMNETLNLKVELKEQSEQLKEQMEDMEESINEFKSIEIEMKNKLEKLNSLLTYIKSEITQQEKGLNELSIRDVTHTLGMLDDNKMDSVKEDVKNNQELDQEYRSCETQDESEIKDAETSCDNYHPMNIDETSDEVSRGIPRLSEDELRELDVELIESKINELSYYVEETNVDIGVLEEYARRLAEFKRRKLDLNNAVQKRDEVKEQLGILKKKRFDEFMAGFNIISMTLKEMYQMITMGGNAELELVDSLDPFSEGVTFSVMPPKKSWRNITNLSGGEKTLSSLALVFALHKYKPTPLYVMDEIDAALDFRNVSIVANYIKERTKNAQFIVISLRNNMFELAQQLVGVYKRDNRTKSTTIKNIDILNRT	binds	binds
Smc4 Q302L (protein, UniProt Q12267 1-1418) MSDSPLSKRQKRKSAQEPELSLDQGDAEEDSQVENRVNLSENTPEPDLPALEASYSKSYTPRKLVLSSGENRYAFSQPTNSTTTSLHVPNLQPPKTSSRGRDHKSYSQSPPRSPGRSPTRRLELLQLSPVKNSRVELQKIYDRHQSSSKQQSRLFINELVLENFKSYAGKQVVGPFHTSFSAVVGPNGSGKSNVIDSMLFVFGFRANKMRQDRLSDLIHKSEAFPSLQSCSVAVHFQYVIDESSGTSRIDEEKPGLIITRKAFKNNSSKYYINEKESSYTEVTKLLKNEGIDLDHKRFLILLGEVENIAQMKPKAEKESDDGLLEYLEDIIGTANYKPLIEERMGQIENLNEVCLEKENRFEIVDREKNSLESGKETALEFLEKEKQLTLLRSKLFQFKLLQSNSKLASTLEKISSSNKDLEDEKMKFQESLKKVDEIKAQRKEIKDRISSCSSKEKTLVLERRELEGTRVSLEERTKNLVSKMEKAEKTLKSTKHSISEAENMLEELRGQQTEHETEIKDLTQLLEKERSILDDIKLSLKDKTKNISAEIIRHEKELEPWDLQLQEKESQIQLAESELSLLEETQAKLKKNVETLEEKILAKKTHKQELQDLILDLKKKLNSLKDERSQGEKNFTSAHLKLKEMQKVLNAHRQRAMEARSSLSKAQNKSKVLTALSRLQKSGRINGFHGRLGDLGVIDDSFDVAISTACPRLDDVVVDTVECAQHCIDYLRKNKLGYARFILLDRLRQFNLQPISTPENVPRLFDLVKPKNPKFSNAFYSVLRDTLVAQNLKQANNVAYGKKRFRVVTVDGKLIDISGTMSGGGNHVAKGLMKLGTNQSDKVDDYTPEEVDKIERELSERENNFRVASDTVHEMEEELKKLRDHEPDLESQISKAEMEADSLASELTLAEQQVKEAEMAYVKAVSDKAQLNVVMKNLERLRGEYNDLQSETKTKKEKIKGLQDEIMKIGGIKLQMQNSKVESVCQKLDILVAKLKKVKSASKKSGGDVVKFQKLLQNSERDVELSSDELKVIEEQLKHTKLALAENDTNMNETLNLKVELKEQSEQLKEQMEDMEESINEFKSIEIEMKNKLEKLNSLLTYIKSEITQQEKGLNELSIRDVTHTLGMLDDNKMDSVKEDVKNNQELDQEYRSCETQDESEIKDAETSCDNYHPMNIDETSDEVSRGIPRLSEDELRELDVELIESKINELSYYVEETNVDIGVLEEYARRLAEFKRRKLDLNNAVQKRDEVKEQLGILKKKRFDEFMAGFNIISMTLKEMYQMITMGGNAELELVDSLDPFSEGVTFSVMPPKKSWRNITNLSGGEKTLSSLALVFALHKYKPTPLYVMDEIDAALDFRNVSIVANYIKERTKNAQFIVISLRNNMFELAQQLVGVYKRDNRTKSTTIKNIDILNRT		binds
